Laboratory results: PMC10317969

Chains of the proteins cited; added tags and fusions are not shown. Lines headed by an entry give the natural chain unless they say otherwise; changes in a name come on top. Residues count along the entry.
UniProt Q96GS4: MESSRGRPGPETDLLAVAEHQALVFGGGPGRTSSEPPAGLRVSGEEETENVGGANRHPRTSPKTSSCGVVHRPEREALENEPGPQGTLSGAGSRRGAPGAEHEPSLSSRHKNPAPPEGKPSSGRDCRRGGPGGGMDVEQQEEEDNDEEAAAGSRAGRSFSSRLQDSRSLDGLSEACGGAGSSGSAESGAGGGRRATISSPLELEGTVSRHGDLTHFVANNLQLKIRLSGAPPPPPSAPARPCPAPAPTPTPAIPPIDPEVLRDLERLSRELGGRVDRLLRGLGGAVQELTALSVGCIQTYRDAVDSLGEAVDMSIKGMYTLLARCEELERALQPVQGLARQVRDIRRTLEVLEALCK
UniProt Q9BTU6: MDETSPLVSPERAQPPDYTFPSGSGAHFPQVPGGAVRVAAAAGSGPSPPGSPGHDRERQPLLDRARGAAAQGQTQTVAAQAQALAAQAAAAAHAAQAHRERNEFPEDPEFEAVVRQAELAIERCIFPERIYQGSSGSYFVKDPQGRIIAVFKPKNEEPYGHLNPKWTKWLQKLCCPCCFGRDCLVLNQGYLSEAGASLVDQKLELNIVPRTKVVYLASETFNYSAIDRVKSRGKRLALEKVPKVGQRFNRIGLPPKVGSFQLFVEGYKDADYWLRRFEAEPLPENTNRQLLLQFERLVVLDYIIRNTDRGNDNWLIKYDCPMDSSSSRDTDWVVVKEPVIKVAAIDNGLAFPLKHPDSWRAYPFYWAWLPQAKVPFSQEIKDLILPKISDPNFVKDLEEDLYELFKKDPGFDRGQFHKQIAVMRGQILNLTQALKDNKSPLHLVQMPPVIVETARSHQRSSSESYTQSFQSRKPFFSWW
UniProt Q15836: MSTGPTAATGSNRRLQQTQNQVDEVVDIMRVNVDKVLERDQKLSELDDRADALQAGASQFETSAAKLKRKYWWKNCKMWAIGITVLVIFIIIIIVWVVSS
UniProt P11717, residues 41-2491: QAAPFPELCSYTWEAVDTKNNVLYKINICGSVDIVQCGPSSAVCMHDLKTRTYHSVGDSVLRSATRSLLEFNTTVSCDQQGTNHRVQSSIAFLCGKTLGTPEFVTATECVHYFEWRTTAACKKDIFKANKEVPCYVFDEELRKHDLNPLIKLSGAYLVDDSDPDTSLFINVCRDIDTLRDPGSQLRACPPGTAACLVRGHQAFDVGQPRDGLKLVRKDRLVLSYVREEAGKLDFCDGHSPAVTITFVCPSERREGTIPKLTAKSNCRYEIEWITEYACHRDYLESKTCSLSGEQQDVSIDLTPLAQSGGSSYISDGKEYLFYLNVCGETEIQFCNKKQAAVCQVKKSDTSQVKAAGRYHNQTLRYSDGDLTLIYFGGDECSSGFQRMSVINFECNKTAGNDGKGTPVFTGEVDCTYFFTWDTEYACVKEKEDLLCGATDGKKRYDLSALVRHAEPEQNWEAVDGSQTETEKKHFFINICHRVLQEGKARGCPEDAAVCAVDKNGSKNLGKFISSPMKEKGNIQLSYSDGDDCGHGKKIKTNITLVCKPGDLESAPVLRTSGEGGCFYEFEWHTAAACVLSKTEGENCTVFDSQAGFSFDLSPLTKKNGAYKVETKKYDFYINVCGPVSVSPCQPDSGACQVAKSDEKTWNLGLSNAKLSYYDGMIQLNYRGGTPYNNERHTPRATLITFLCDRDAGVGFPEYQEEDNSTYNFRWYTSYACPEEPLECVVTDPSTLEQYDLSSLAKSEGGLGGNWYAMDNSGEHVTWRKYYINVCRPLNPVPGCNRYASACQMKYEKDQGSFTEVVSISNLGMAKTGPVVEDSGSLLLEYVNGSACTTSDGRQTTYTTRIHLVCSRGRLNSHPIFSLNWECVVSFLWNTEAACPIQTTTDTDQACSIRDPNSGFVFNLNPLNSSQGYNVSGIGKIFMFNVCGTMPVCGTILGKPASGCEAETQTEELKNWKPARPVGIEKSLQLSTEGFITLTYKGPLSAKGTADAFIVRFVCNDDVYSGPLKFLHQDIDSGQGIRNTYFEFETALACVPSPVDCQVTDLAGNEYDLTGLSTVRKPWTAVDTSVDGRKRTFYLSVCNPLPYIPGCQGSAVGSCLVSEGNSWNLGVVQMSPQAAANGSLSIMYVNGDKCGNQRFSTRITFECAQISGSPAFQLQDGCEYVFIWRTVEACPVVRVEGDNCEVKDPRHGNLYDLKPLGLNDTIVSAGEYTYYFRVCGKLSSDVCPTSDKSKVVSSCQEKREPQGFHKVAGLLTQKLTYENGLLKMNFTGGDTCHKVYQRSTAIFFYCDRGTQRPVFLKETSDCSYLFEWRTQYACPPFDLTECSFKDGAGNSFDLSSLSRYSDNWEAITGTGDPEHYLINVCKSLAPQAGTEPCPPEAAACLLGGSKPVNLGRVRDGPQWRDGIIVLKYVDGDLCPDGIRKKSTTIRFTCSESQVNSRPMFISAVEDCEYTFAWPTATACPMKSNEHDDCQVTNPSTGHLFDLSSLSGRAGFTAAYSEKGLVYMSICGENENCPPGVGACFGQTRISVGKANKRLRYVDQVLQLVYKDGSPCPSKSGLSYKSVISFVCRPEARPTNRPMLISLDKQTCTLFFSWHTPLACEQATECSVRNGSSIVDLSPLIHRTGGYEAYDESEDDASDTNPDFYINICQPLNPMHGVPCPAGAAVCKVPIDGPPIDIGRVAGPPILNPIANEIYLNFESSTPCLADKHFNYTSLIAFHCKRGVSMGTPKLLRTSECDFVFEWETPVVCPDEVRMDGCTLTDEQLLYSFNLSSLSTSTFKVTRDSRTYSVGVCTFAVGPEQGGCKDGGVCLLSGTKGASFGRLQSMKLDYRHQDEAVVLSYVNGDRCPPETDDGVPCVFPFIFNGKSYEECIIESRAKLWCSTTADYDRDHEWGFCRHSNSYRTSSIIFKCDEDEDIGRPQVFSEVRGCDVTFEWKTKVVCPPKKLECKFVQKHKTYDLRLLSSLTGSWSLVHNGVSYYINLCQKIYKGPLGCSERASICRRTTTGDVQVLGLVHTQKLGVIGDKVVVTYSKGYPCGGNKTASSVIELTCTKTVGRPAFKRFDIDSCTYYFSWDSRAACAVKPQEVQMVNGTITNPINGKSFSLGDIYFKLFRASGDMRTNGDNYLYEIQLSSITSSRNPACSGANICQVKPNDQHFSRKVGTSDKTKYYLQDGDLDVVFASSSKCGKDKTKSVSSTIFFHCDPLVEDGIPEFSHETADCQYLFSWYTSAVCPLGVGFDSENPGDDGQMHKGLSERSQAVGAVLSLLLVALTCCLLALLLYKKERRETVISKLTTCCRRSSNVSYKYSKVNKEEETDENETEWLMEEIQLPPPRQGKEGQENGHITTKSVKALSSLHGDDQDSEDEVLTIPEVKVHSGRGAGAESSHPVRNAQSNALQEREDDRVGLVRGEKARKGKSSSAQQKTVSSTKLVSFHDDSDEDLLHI

T1: CLN3-innHA (UniProt Q13286)
T1 sequence: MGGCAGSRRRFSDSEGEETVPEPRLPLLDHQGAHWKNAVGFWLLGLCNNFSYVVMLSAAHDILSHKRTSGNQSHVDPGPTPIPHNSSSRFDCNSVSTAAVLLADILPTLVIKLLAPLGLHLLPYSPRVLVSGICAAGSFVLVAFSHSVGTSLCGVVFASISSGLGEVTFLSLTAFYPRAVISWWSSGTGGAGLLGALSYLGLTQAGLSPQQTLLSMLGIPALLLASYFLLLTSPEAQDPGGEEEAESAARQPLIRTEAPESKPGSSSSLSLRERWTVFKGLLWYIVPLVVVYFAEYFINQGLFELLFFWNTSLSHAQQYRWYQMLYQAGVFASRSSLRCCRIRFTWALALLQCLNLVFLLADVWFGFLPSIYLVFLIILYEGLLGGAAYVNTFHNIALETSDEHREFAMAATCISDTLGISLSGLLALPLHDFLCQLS

B1: Snapin (protein, UniProt O95295 1-136)
chain: MAGAGSAAVSGAGTPVAGPTGRDLFAEGLLEFLRPAVQQLDSHVHAVRESQVELREQIDNLATELCRINEDQKVALDLDPYVKKLLNARRRVVLVNNILQNAQERLRRLNHSVAKETARRRAMLDSGIYPPGSPGK

target: T1, CLN3-innHA; experiment: affinity purification with mass spectrometry; anti-HA immunoprecipitation from ARPE19-pLVX-CLN3innHA cells induced 24 h with 1 ug/ml doxycycline, fed and prolonged starvation (16 h serum+glutamine starvation); cells cross-linked with 1 mg/mL DSP before lysis in RIPA buffer; label-free MS, hits enriched against cells not expressing the HA tag

binding | Molecule
binds | Lyspersin (from UniProt Q96GS4)
binds | PI4K2A (from UniProt Q9BTU6 1-479) (enzyme)
binds | VAMP3 (from UniProt Q15836 1-100)
binds | VPS26 (human (endogenous in ARPE19))
binds | cation independent-mannose 6-phosphate receptor (CI-M6PR) (from UniProt P11717 41-2491)
binds | B1

These are yes or no findings as the source states them, for the method shown. Binding seen in cells or lysates may run through a third protein. These calls come from enrichment with a bait or labelling near it, and not all partners need be listed.
